Source: patent US20220289795, “EFFICIENT METHOD FOR PREPARING PPR PROTEIN AND USE OF THE SAME” (EditForce, Inc., published 2022)
Where a protein sequence is shown, tags need not be part of it.

Legend:
Test in all cases: activity in cells
[1] = test system: T1, v1_PPRsp2 (Artificial Sequence); details: splicing ratio of RG6 changed, HEK293T; protein in cells; protein details: N-term NLS, C-term FLAG; only the site is given
T1 sequence: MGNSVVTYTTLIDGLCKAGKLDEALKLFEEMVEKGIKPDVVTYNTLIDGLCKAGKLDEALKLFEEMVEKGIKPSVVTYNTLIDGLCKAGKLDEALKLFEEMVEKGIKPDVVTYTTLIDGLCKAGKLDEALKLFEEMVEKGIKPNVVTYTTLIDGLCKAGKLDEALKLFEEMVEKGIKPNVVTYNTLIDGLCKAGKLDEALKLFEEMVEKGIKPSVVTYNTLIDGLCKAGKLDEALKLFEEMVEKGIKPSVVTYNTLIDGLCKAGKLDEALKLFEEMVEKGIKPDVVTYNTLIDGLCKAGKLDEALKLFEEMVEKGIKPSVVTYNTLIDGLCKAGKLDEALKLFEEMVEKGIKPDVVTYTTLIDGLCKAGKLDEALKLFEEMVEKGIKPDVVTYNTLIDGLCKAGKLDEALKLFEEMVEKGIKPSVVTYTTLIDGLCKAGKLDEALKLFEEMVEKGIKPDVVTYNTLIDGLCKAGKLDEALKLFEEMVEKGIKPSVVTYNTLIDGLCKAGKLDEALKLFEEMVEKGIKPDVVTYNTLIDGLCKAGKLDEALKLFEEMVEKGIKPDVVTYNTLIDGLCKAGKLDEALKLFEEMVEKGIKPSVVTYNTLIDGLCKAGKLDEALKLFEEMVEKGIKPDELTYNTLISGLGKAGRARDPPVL

[2] = test system: T2, v2_PPRsp2 (Artificial Sequence); details: larger splicing change than v1, HEK293T; protein in cells; protein details: N-term NLS, C-term FLAG; only the site is given
T2 sequence: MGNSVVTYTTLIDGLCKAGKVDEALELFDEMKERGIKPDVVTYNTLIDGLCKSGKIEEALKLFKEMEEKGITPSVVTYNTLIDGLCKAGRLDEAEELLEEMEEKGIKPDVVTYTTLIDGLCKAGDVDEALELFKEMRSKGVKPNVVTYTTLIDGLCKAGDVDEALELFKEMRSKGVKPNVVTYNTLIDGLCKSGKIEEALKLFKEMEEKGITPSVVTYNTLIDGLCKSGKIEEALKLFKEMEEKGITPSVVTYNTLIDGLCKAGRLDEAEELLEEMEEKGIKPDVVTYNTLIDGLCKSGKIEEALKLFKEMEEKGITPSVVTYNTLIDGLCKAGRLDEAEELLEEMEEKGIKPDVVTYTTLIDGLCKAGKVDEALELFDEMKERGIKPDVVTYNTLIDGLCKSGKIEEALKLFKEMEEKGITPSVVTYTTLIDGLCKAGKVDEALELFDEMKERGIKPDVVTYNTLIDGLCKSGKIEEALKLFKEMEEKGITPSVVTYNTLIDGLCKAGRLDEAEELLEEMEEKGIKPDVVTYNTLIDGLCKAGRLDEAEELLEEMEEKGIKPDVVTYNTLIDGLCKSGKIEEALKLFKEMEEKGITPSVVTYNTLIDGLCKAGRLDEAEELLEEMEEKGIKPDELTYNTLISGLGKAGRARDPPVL

[3] = test system: T3, v1_PPRsp5 (Artificial Sequence); details: splicing ratio of RG6 changed, HEK293T; protein in cells; protein details: N-term NLS, C-term FLAG; only the site is given
T3 sequence: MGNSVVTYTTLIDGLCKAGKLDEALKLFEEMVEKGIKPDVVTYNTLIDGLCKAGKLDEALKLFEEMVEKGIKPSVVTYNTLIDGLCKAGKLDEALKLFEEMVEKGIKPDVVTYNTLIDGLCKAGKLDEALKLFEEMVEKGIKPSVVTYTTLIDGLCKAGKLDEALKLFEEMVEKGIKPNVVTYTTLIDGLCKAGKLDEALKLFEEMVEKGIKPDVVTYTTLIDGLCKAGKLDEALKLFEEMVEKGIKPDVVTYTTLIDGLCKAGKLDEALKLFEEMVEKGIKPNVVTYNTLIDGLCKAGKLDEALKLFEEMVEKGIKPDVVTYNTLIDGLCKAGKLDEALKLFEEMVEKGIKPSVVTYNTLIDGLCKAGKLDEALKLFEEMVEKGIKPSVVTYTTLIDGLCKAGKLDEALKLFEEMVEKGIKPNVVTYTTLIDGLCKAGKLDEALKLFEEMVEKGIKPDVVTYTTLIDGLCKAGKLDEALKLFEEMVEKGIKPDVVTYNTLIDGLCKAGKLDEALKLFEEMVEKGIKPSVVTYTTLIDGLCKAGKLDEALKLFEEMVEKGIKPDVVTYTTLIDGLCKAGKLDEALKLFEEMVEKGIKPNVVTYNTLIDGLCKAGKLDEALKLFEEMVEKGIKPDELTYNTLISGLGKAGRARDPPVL

[4] = test system: T4, v2_PPRsp5 (Artificial Sequence); details: larger splicing change than v1, HEK293T; protein in cells; protein details: N-term NLS, C-term FLAG; only the site is given
T4 sequence: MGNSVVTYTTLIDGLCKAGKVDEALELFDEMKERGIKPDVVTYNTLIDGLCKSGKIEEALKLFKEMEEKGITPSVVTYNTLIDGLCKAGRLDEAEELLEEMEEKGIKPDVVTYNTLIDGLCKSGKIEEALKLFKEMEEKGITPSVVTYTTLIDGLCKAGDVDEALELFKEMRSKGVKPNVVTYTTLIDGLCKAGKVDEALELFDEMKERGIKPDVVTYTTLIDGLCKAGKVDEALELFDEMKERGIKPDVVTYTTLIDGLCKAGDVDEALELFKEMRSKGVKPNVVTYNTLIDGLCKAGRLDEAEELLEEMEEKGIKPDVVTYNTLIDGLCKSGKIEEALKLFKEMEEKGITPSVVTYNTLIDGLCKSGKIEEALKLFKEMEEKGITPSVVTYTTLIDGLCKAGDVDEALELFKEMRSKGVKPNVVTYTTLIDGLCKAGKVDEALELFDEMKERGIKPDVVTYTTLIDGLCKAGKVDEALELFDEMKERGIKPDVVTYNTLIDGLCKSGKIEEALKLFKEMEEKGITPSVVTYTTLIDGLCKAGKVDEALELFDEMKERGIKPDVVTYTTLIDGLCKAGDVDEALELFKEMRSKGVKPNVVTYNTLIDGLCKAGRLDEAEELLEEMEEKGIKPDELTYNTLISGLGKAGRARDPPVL

[5] = test system: T5, v1_PPRsp3 (Artificial Sequence); details: splicing ratio of RG6 changed, HEK293T; protein in cells; protein details: N-term NLS, C-term FLAG; only the site is given
T5 sequence: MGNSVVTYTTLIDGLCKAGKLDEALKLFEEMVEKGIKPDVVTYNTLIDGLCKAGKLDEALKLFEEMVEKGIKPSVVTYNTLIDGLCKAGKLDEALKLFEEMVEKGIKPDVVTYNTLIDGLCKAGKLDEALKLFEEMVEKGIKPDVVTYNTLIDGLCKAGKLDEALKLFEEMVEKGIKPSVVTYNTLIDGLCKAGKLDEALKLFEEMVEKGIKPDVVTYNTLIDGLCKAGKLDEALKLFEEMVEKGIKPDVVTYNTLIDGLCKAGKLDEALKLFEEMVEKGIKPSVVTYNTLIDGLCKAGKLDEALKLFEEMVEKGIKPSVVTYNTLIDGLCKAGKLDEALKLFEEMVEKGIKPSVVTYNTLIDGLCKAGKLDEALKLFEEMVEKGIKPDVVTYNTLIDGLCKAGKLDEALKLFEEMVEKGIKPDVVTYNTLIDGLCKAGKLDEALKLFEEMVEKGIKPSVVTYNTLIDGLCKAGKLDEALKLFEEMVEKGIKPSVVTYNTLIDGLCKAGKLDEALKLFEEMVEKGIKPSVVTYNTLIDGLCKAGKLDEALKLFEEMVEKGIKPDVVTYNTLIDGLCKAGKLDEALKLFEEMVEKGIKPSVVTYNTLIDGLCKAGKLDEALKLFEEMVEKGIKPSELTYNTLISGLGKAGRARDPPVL

[6] = test system: T6, v2_PPRsp3 (Artificial Sequence); details: larger splicing change than v1, HEK293T; protein in cells; protein details: N-term NLS, C-term FLAG; only the site is given
T6 sequence: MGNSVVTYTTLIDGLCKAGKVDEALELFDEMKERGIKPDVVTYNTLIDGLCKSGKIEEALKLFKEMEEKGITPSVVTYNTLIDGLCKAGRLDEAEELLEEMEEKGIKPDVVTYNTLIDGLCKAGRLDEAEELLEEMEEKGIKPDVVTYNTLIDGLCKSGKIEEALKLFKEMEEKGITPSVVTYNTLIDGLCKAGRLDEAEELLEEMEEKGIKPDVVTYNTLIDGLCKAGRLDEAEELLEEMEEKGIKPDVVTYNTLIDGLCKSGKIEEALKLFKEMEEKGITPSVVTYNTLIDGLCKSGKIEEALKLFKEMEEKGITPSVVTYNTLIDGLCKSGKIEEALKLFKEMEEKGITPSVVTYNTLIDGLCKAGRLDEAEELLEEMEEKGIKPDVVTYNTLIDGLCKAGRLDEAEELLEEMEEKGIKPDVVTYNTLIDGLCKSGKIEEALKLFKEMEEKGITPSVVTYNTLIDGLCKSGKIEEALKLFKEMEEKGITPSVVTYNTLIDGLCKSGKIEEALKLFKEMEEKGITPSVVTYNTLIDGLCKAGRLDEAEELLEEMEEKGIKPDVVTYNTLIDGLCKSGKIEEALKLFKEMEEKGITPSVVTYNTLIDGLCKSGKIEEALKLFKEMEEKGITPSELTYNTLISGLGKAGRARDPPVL

[7] = test system: T7, v1_PPRsp1 (Artificial Sequence); details: splicing ratio of RG6 changed from 0.48, HEK293T; values in figure; protein in cells; protein details: N-term NLS, C-term FLAG; only the site is given
T7 sequence: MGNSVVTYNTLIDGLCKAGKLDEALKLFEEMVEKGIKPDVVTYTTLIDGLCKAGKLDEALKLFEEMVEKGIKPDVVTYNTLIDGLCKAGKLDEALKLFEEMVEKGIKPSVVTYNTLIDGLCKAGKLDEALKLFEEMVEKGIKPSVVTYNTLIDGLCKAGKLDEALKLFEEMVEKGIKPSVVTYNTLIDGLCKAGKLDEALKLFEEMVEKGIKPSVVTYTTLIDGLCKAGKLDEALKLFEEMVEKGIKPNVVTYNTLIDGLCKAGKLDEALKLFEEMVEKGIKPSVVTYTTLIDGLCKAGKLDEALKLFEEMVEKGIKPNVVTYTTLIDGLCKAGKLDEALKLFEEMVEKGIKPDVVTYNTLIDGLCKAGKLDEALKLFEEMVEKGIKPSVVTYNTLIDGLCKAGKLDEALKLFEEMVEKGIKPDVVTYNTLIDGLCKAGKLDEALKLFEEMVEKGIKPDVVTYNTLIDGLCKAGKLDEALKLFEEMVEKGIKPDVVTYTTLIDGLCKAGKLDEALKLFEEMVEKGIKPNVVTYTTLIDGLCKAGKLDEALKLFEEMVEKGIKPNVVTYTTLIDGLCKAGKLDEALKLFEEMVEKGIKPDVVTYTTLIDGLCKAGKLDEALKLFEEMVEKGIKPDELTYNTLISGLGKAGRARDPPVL

[8] = test system: T8, v2_PPRsp1 (Artificial Sequence); details: larger splicing change than v1, HEK293T; protein in cells; protein details: N-term NLS, C-term FLAG; only the site is given
T8 sequence: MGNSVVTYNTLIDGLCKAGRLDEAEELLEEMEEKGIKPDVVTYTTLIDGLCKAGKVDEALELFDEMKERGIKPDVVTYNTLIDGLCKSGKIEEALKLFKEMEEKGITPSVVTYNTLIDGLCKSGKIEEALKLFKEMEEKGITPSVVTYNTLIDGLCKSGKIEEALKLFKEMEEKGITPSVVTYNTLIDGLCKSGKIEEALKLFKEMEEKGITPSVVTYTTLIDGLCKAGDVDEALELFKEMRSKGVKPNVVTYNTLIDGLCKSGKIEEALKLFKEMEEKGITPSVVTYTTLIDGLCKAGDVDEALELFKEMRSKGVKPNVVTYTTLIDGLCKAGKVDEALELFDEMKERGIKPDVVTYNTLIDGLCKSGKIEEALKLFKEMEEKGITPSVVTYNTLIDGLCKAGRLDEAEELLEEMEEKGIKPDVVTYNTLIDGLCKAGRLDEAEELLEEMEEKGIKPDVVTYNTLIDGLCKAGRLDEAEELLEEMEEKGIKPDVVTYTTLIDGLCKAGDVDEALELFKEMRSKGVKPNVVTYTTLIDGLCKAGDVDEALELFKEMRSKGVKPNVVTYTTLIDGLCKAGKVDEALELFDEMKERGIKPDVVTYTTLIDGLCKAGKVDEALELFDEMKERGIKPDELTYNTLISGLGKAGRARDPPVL

Q: Which results are given for GCUAACCUCUGCGCUUCU [T78 (RG6 reporter)]?
A: functional effect [1]: active; functional effect [2]: active

Q: Which functional effect [3] does the source give for GCUCAGGAUCCAGGCGAU [T81 (RG6 reporter)] here?
A: active

Q: What about the functional effect [4] of the same sequence?
A: active

Q: What does the source list for GCUUCUUCCCUUCCCUCC [T79 (RG6 reporter)]?
A: functional effect [5]: active; functional effect [6]: active

Q: For UGCCCCACAGCUUUAAGG [T77 (RG6 reporter)], which functional effect [7] is on record?
A: active

Q: What about the functional effect [8] of the same sequence?
A: active
